The term AC50 denotes the concentration at which the activity in the assay is half-maximal.

Some of the results follow. Shown are side measurements of this screen, not its main read-out; they come without a call. Compounds called inactive in the main read-out are mostly missing here. Potencies come from curve fits of mixed quality, noted in brackets.

A short description of this experiment: IkB Signaling. The note with it: ABC-DLBCL IkBa-CBG/CBR dual luciferase ratio (green luciferase fused to IkBa over red control in OCI-Ly3 lymphoma cells), 4 h; measured here: control luc red channel unless noted. Summed up:
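Curves were fitted separately to fusion (green), unfused (red) and ratio luminescence, then classed by r2, magnitude and activity. Cells: OCI-Ly3, 4 h compound plus doxycycline at 37C; 10 uM MG-132 defined full response.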
For the compound `CCN(c1ncnc2c1cnn2-c1cc(Cl)ccc1C)C1CCCCC1`, the AC50 is 31.6 µM [falling, single point].
As for `O=C(CN1C(=O)COc2ccc(S(=O)(=O)N3CCOCC3)cc21)N1CCN(c2cccc(C(F)(F)F)c2)CC1`, the AC50 is 31.6 µM [falling, single point].
Turning to `COc1cc(C2c3c(-c4c(C)cc(C)cc4O)n[nH]c3C(=O)N2CCO)cc(OC)c1OC` (stereo not drawn), the AC50 is 0.2 µM [rising, full curve].
The value for `COc1ccc(OC)c(CNC(=O)c2cc3cc4ccc(OC)cc4nc3o2)c1` was 39.8 µM [rising, single point].
As to `COC(=O)[C@@H](N)Cc1ccc(O)c(O)c1`, the AC50 is 10 µM [rising, full curve, poor fit] [measured here: IkB-luc green channel].
Regarding `CCCn1cnc2cc(NCc3ccccn3)ccc21`, the AC50 was 1.26 µM [falling, partial curve].
The value for `Cc1ccccc1-c1nnc(CN2CCN(c3cccc(C)c3C)CC2)o1` was 31.6 µM [falling, partial curve].
The value for `COc1cccc(NC(=O)CSc2nc3c([nH]c4ccccc43)c(=O)n2-c2ccccc2)c1` was 39.8 µM [falling, single point]; that for `CCCN1C(=O)c2[nH]nc(-c3ccccc3O)c2C1c1cccc(OCc2ccccc2)c1` (stereo not drawn) was 15.8 µM [falling, partial curve]; that for `COCCNC(=O)C(=O)NCC(c1cccnc1)N1CCN(c2ccccc2OC)CC1` (stereo not drawn) was 15.8 µM [falling, partial curve].
Then `CC(C)(C)NC(=O)c1cnn(-c2ccccc2)c1C1CCN(C(=O)OC(C)(C)C)CC1`, with 15.8 µM [falling, single point].
`O=C(CCCc1nc2ccccc2s1)Nc1nccs1`: the AC50 is 25.1 µM [falling, single point].
The value for `O=C(NCc1ccccc1Cl)c1cc2c(s1)-c1ccccc1SC2` was 5.01 µM [falling, partial curve].
On to `Cc1ccc(CSc2ccc(-c3cccs3)nn2)cc1`, for which the AC50 is 5.01 µM [rising, partial curve].
The value for `COc1ccc(S(=O)(=O)n2cnc3cc(C)c(C)cc32)cc1C` was 12.6 µM [falling, partial curve]; that for `Cc1cc(OCC(=O)Nc2cc(-c3nc4ccccc4[nH]3)ccc2C)ccc1Cl` was 10 µM [falling, partial curve]; that for `COc1cccc(NC(=O)CSc2nnc(-c3cc(C)n(-c4ccccc4)c3C)o2)c1` was 7.94 µM [falling, partial curve].
As for `Cc1ccccc1C(=O)Nc1nnc(SCc2cc(=O)n3ccccc3n2)s1`, the AC50 was 6.31 µM [falling, partial curve].

For the origin of these results see PubChem BioAssay AID445 (National Center for Advancing Translational Sciences (NCATS), 2006).
